# Source: US20080241274A1 (ZIOPHARM Oncology, Inc., priority 2006, published 2008)
# Test system: MCF-7 ER-positive breast cancer
# Assay: Monolayer assay (DNA content by propidium iodide), single agents and indibulin combinations, MCF-7
# Format: cell-based, human
# Description: The monolayer assay determines the in vitro antitumor activity of test compounds and their capacity to inhibit survival and proliferation of established tumor cell lines. These effects can be determined by establishing the number of viable cells based on measuring the DNA content using propidium iodide. […] Between 5,000 and 10,000 cells were seeded in 96 well plates on Day 0 and the compounds were added 1 day later and incubated for 4 days. The activity was assessed by their IC50 and IC70 values.
# Growth IC50 and IC70 values (Table 2) were determined using XLfit software package, and used to set the concentration ranges and drug ratios for the synergy detection part of the study.
# Chou-Talalay median effect method was used to quantitatively characterize drug-drug interaction [Chou T. C. […] Test agents were applied to cells at the same time at a constant, equipotent ratio, based on the previously determined respective single agent IC50s (e.g. if IC50(drug A)=0.2 μM and IC50(drug B)=10 μM the ratio is set to 1:50). […] Additionally, single agent dose response was determined for the same concentration ranges as used for combination study.
# The coefficient of interaction (CI(IC50)) at IC50 and coefficient of interaction under optimal experimental concentrations (CI(e)) were determined using CalcuSyn software package (Table 3, tests were performed in quadruplicate, mean values reported). […]
smiles,measurement,setting,value
CC/C(=C(\c1ccccc1)c1ccc(OCCN(C)C)cc1)c1ccccc1 [Tamoxifen],IC50,"Homo sapiens, MCF7, MCF7, single agent (combination study)",1.57 µg/mL
same,Combination IC50,"MCF7, indibulin + tamoxifen (tamoxifen:indibulin 100:1), concentration of the named drug in the combination",0.376 µg/mL
